Laboratory results reported in patent US12544428B2, “Controlled-release CNP agonists with reduced side-effects” (ASCENDIS PHARMA GROWTH DISORDERS A/S, priority 2016, dated 2026).
At least one peptide structure holds a part that was inferred or is arguable (an end, a ring closure or a residue).

Molecular target: T1, NPR-B receptor (Mus musculus, UniProt Q6VVW5)
T1 construct: These cells express endogenously the NPR-B receptor on the cell surface; endogenous in cells; host or cells: NIH-3T3 (murine embryo fibroblast)
T1 sequence (Q6VVW5 23-1047 limits assumed): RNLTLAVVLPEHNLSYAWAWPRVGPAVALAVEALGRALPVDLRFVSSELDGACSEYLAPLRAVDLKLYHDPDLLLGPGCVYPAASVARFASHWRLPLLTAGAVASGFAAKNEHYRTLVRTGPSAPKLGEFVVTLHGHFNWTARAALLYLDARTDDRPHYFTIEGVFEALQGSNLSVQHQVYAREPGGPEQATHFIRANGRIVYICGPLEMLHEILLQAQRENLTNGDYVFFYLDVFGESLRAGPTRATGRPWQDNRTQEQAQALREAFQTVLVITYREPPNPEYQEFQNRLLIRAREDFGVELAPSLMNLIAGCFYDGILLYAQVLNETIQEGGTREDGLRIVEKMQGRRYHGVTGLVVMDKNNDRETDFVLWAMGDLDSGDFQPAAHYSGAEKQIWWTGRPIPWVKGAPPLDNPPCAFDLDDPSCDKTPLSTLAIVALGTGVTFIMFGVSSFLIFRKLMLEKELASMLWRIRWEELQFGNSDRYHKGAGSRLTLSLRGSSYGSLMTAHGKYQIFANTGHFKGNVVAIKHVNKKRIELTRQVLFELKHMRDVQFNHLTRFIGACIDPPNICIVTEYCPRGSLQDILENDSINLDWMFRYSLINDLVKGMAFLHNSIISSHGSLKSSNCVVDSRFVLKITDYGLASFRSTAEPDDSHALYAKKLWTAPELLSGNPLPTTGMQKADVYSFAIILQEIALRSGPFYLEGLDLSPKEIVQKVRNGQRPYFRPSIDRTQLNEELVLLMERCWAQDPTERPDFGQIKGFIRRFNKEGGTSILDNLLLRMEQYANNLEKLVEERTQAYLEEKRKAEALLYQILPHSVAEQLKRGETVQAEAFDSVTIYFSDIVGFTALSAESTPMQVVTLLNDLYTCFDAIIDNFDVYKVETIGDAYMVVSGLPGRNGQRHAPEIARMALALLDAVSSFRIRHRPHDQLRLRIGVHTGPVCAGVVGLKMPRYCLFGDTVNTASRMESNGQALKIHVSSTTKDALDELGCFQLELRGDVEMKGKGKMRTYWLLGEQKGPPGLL
Experiment: Functional cGMP stimulation in NIH-3T3 cells with CNP variants
Assay type: cell-based, murine
Conditions: CNP-38 released from 11i after 7 d under physiological conditions, isolated by RP-HPLC
Protocol: As used herein “EC50” with regard to controlled-release CNP agonist and CNP agonist refers to the concentration of controlled-release CNP agonist and CNP agonist with which a half-maximum cGMP production of NPR-B is elicited. NPR-B activity in the form of its EC50 of the controlled-release CNP agonist, of the released CNP agonist and of CNP-22 is measured by cultivating NIH-3T3 (Murine Embryo Fibroblast cell line) cells which express NPR-B on their cell surface, incubating the cells with the controlled-release CNP agonist, the corresponding released CNP agonist or CNP-22, respectively, and determining the intracellular production of the second messenger cGMP with a standard cGMP assay. […]
Functional activity of CNP variants were determined in a cell-based assay with NIH-3T3 cells (Murine Embryo Fibroblast cell line). […] Stimulation of the NPR-B receptor with CNP leads to intracellular production of the second messenger cGMP which is detected with a commercially available cGMP assay. […] After incubation of 30 min at 37° C. and 5% CO2, the cells were lyzed and cGMP levels were determined with a commercially available cGMP TR-FRET assay (Cisbio, cGMP kit, Cat. No. 62GM2PEB). […]
11i was incubated under physiological conditions (1 mg CNP-38 eq/mL), as described in Example 20. After 7 d, released CNP-38 was isolated by RP-HPLC and analyzed for bioactivity as described in Example 21.

Compound: CC[C@H](C)[C@@H]1NC(=O)[C@H](CCCNC(=N)N)NC(=O)[C@H](CC(=O)O)NC(=O)[C@H](CC(C)C)NC(=O)[C@H](CCCCN)NC(=O)[C@H](CC(C)C)NC(=O)CNC(=O)[C@H](Cc2ccccc2)NC(=O)[C@@H](NC(=O)CNC(=O)[C@H](CCCCN)NC(=O)[C@H](CO)NC(=O)[C@H](CC(C)C)NC(=O)CNC(=O)[C@H](CCCCN)NC(=O)[C@H](CCCCN)NC(=O)[C@H](CC(N)=O)NC(=O)[C@H](C)NC(=O)CNC(=O)[C@H](CCCCN)NC(=O)[C@H](Cc2ccc(O)cc2)NC(=O)[C@H](CCCCN)NC(=O)[C@H](CCCNC(=N)N)NC(=O)[C@H](C)NC(=O)[C@H](CC(N)=O)NC(=O)[C@@H]2CCCN2C(=O)[C@H](Cc2c[nH]cn2)NC(=O)[C@H](CCC(=O)O)NC(=O)[C@H](CCC(N)=O)NC(=O)[C@@H](N)CC(C)C)CSSC[C@@H](C(=O)O)NC(=O)CNC(=O)[C@H](CC(C)C)NC(=O)CNC(=O)[C@H](CO)NC(=O)[C@H](CCSC)NC(=O)[C@H](CO)NC(=O)CNC1=O [CNP-38]
- EC50 compound/EC50 CNP-38: 1
